Measured values published in PubChem BioAssay AID1487 (National Center for Advancing Translational Sciences (NCATS), 2009).
This is one part of the list. Further columns of the screen follow, without active or inactive calls. The list favours compounds with an active or inconclusive main result. Potencies come from curve fits of mixed quality, noted in brackets.

Assay: qHTS Assay for Modulators of Lamin A Splicing
Settings: HeLa LMNA splicing GFP/RFP minigene ratio, 48 h
Method in brief: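 S3 HeLa cells stably expressing lamin A-EGFP splicing minigene plus DsRed2, 600 cells/well, 48 h compound exposure at 37C. Laser-scanning cytometry; analysed as GFP (500-530 nm)/RFP (575-640 nm) total intensity ratio; 0.5% DMSO vehicle.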

[1] = measured here: GFP splicing reporter channel
[2] = measured here: RFP viability control channel

SMILES | AC50 [1] | AC50 [2]
Cc1nn(Cc2ccc(F)cc2Cl)c(C)c1[N+](=O)[O-] | 0.00794 µM [falling, full curve] | 0.178 µM [falling, full curve, poor fit]
O=C(Nc1nc(SCc2ccc(F)cc2)ns1)c1ccco1 | 14.1 µM [rising, single point] | 17.8 µM [rising, single point]
CC(C)(C)c1ccc(/C=N/NC(=S)NCc2ccccc2)cc1 | – | 3.98 µM [rising, full curve, poor fit]
Cn1nc([N+](=O)[O-])nc1Sc1nnc(-c2ccccc2)o1 | 7.94 µM [falling, partial curve] | 14.1 µM [falling, single point]
Cc1cc2c3c(c1)C(C)(c1ccccc1)CC(C)(C)N3C(=O)C21C(C#N)=C(N)OC2=C1C(=O)CC(C)(C)C2 (stereo not drawn) | 20 µM [falling, single point] | –
Cc1ccc(C(=O)/C=C/c2ccc(Br)cc2)o1 | 2.82 µM [falling, single point] | 17.8 µM [falling, single point]
CCOC(=O)C1=C(CNCc2ccc(C)cc2)NC(=O)NC1c1ccc(OC)cc1 (stereo not drawn) | – | 10 µM [rising, partial curve, poor fit]
CCC(C)/C(C)=N/NC(=O)c1ccc(CSc2nc3ccccc3s2)cc1 (stereo not drawn) | 11.2 µM [rising, partial curve] | 35.5 µM [rising, single point]
COc1ccccc1/C=C/C(=O)OCC(=O)Nc1cc(C(F)(F)F)ccc1N1CCOCC1 | 12.6 µM [rising, single point] | 12.6 µM [rising, partial curve]
COc1ccc(C2=NOC(C(=O)NCc3ccccc3)C2)cc1 (stereo not drawn) | 3.98 µM [falling, full curve] | 3.55 µM [falling, full curve]
Cc1sc2cc3c(c(C(=O)c4ccccc4)[n+]2c1C)-c1cccc2cccc-3c12 | 1.58 µM [rising, full curve] | 7.94 µM [rising, partial curve]
N#CCSc1nnc(COc2ccc3ccccc3c2)o1 | – | 10 µM [rising, partial curve, poor fit]
Cc1cccc2sc(NC(=O)c3cc(S(=O)(=O)N(C)C)ccc3N3CCCC3)nc12 | 31.6 µM [rising, single point] | 35.5 µM [rising, single point]
O=C(Cn1ccc2ccccc2c1=O)Nc1ccc2c(c1)OCO2 | – | 17.8 µM [rising, partial curve, poor fit]

Single values from the entries so far.
AC50 [2], `CCOC(=O)C1=C(CNCc2ccc(C)cc2)NC(=O)NC1c1ccc(OC)cc1` (stereo not drawn) reads 10 µM [rising, partial curve, poor fit]
AC50 [1], `COc1ccccc1/C=C/C(=O)OCC(=O)Nc1cc(C(F)(F)F)ccc1N1CCOCC1` reads 12.6 µM [rising, single point]
